# Test results as given in patent EP2246329A1, “4(1H)-pyridinone derivatives and their use as antimalaria agents” (Glaxo Group Limited, priority 2009, dated 2010).
# Some of these results come from one statement about several compounds together. At least one structure is not confirmed: it was looked up by name or label, or the drawing left a doubt.
# Tested on: Plasmodium falciparum
# Assay: In vitro anti-malarial activity against Plasmodium falciparum, IC50 assay / [3H]-Hypoxanthine incorporation assay
# Assay type: cell-based
# Conditions: Plasmodium falciparum strains in parasitized red blood cells, 48 hours at 37°C
# Protocol: The compounds of this invention may be tested in one of several biological assays to determine the concentration of compound which is required to have a given pharmacological effect. In vitro anti-malarial activity against Plasmodium falciparum. IC50 assay / [^3H]-Hypoxanthine assay
# The culture medium comprised RPMI 1640 with 25mM HEPES, sodium bicarbonate and glutamine (GIBCO™ cat. ref.: 52400), supplemented with 10% of pooled human sera AB (Irvine Scientific, cat. ref.: 5009) and HT supplement (0.15 mM hypoxanthine and 24 µM thymidine), (GIBCO™ cat. ref.: 41065). Human sera were decomplemented 30 min. at 56°C, aliquoted and stored frozen at -20°C until use in this culture medium.
# This culture medium ("complete medium") was usually prepared fresh just before use and pre-warmed to 37°C.
# Red blood cells O+ stock suspensions were prepared from whole blood bags coming from incomplete blood donation, provided by the Spanish Red Cross (<25 days after sampling). This "whole blood" was aliquoted and stored at 4°C.
# To prepare red blood cells for the assay, the whole blood was centrifuged and washed 3 times with RPMI without serum. The upper phase, containing white blood cells was removed. The washed red blood cells were kept as a 50 % suspension in complete medium. The prepared cells were stored at 4°C and were employed in the assay at any time up to 4 days after preparation.
# Test compounds were dissolved at 2 mg/ml in 100% DMSO on the day of the assay. If necessary, complete dissolution was achieved by gentle heating (the mixture was heated at a temperature <37°C) and sonication (sonication bath).
# For IC50 determinations, 10 serial 2-fold dilutions were prepared in complete medium in the presence of a constant amount of DMSO. Any obvious signs of insolubility of the stock solutions in 100% DMSO or precipitation when these solutions were diluted in assay media, were recorded.
# Plasmodium falciparum strains were maintained in complete medium at an hematocrit of 5% in continuous culture using a method adapted from that published by Trager and Jensen(1) and Traeger(2).
# The parasitemia was calculated by counting the percentage of parasitized erythrocytes by optical microscopy. Thin films of blood were made every day from each culture flask, fixed with methanol and stained for 10 min. in Giemsa (Merck, cat. ref.: 1.09204) at 10 % in buffered water pH 7.2. The glass slides were observed and counted with an optical microscope (Nikon, Eclipse E200) equipped with a 100 X immersion oil objective.
# The culture was maintained at an hematocrit of 5%, with a daily change of medium and was diluted when parasitemia had reached about 5%.
# [^3H] Hypoxanthine incorporation assay was conducted using a method adapted from Desjardins et al. (3). The assays were performed in 96 wells flat bottom microplates. • 1. Serial dilutions of the test compounds (50µl of a 5X solution / well) were deposited in duplicate. Compounds of the invention were tested in this assay. Chloroquine and Atovaquone were used as control compounds for each assay. • 2. […] [^3H]-Hypoxanthine (Amersham Biosciences, cat. ref.: TRK74) was added extemporaneously to the inoculum suspension at a concentration of 1 µCi/ml (equating to […]). 200 µl of the resulting suspension was distributed into each well (other than the control well H12 described below) leading to a final volume of 250 µl per well, at 2% of hematocrit and 0.5 % of parasitemia / well. • 4. […]
row,Compound,IC50 value
1,"Cc1[nH]c(C)c(-c2ccc(-c3ccc(CN(C)Cc4ccc(OC(F)(F)F)cc4)o3)cc2)c(=O)c1Cl.O=C(O)C(F)(F)F [Example 28, 3-Chloro-2,6-dimethyl-5-[4-(5-{[methyl({4-[(trifluoromethy I)oxy]phenyl}methyl)amino]-methyl}-2-furanyl)phenyl] -4(1H)-pyridinone trifluoroacetate]",less than 125 ng/ml
2,"Cc1[nH]c(C)c(-c2ccc(-c3ccc(CN(C)Cc4ccc(OC(F)(F)F)cc4)o3)cc2)c(=O)c1Cl.Cl [Example 29, 3-Chloro-2,6-dimethyl-5-[4-(5-{[methyl({4-[(trifluoromethy I)oxy]phenyl}methyl)amino]-methyl}-2-furanyl)phenyl] -4(1H)-pyridinone hydrochloride]",less than 125 ng/ml
3,"Cc1[nH]c(C)c(-c2ccc(C#CC(C)(C)N3CCC(c4ccccc4)CC3)cc2)c(=O)c1Cl [Example 16, 3-Chloro-2,6-dimethyl-5-{4-[3-methyl-3-(4-phenyl-1-piperidinyl)-1-butyn-1-yl]phenyl}-4(1H)-pyridinone]",less than 125 ng/ml
4,"Cc1[nH]c(C)c(-c2ccc(-c3ccc(CN(C)Cc4ccc(OC(F)(F)F)cc4)s3)cc2)c(=O)c1Cl.Cl [Example 27, 3-Chloro-2,6-dimethyl-5-[4-(5-{[methyl({4-[(trifluoromethy I)oxy]phenyl}methyl)amino]-methyl}-2-thienyl)phenyl] -4(1H)-pyridinone hydrochloride]",less than 125 ng/ml
5,Cc1[nH]c(C)c(-c2ccc(C#CCN(C)Cc3ccccc3)cc2)c(=O)c1Cl [Example 5],less than 125 ng/ml
6,"3-Chloro-2,6-dimethyl-5-(4-{3-[methyl({4-[(trifluoromethyl)oxyl]phenyl}methyl)amino]propyl}phenyl)-4(1H)-pyridinone [Example 51]",less than 125 ng/ml
7,"Cc1[nH]c(C)c(-c2ccc(C#CCN(Cc3ccc(OC(F)(F)F)cc3)C3CC3)cc2)c(=O)c1Cl [Example 7, 3-Chloro-5-(4-{3-[cydopropyl({4-[(trifluoromethyl)oxy]phenyl}methyl)amino]-1-propyn-1-yl}phenyl)-2,6-dimethyl-4(1H)-pyridinone]",less than 125 ng/ml
